According to the supplement of paper PMC10849652:
Some of the results follow.

Amino acid sequences for entries named in this document (tags omitted). A change or cut given only in a name is not applied to a line headed by its entry.
UniProt Q9NPF2: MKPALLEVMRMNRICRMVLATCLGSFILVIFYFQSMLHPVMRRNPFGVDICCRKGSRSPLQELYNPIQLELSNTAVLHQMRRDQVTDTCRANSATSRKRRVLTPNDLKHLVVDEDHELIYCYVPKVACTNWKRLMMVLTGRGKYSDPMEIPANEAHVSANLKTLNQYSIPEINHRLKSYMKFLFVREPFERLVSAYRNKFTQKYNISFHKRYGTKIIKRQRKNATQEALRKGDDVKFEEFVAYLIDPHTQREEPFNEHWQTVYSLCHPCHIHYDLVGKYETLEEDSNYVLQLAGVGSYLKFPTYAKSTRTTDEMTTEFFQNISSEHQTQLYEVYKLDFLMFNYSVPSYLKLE
UniProt Q8TD26: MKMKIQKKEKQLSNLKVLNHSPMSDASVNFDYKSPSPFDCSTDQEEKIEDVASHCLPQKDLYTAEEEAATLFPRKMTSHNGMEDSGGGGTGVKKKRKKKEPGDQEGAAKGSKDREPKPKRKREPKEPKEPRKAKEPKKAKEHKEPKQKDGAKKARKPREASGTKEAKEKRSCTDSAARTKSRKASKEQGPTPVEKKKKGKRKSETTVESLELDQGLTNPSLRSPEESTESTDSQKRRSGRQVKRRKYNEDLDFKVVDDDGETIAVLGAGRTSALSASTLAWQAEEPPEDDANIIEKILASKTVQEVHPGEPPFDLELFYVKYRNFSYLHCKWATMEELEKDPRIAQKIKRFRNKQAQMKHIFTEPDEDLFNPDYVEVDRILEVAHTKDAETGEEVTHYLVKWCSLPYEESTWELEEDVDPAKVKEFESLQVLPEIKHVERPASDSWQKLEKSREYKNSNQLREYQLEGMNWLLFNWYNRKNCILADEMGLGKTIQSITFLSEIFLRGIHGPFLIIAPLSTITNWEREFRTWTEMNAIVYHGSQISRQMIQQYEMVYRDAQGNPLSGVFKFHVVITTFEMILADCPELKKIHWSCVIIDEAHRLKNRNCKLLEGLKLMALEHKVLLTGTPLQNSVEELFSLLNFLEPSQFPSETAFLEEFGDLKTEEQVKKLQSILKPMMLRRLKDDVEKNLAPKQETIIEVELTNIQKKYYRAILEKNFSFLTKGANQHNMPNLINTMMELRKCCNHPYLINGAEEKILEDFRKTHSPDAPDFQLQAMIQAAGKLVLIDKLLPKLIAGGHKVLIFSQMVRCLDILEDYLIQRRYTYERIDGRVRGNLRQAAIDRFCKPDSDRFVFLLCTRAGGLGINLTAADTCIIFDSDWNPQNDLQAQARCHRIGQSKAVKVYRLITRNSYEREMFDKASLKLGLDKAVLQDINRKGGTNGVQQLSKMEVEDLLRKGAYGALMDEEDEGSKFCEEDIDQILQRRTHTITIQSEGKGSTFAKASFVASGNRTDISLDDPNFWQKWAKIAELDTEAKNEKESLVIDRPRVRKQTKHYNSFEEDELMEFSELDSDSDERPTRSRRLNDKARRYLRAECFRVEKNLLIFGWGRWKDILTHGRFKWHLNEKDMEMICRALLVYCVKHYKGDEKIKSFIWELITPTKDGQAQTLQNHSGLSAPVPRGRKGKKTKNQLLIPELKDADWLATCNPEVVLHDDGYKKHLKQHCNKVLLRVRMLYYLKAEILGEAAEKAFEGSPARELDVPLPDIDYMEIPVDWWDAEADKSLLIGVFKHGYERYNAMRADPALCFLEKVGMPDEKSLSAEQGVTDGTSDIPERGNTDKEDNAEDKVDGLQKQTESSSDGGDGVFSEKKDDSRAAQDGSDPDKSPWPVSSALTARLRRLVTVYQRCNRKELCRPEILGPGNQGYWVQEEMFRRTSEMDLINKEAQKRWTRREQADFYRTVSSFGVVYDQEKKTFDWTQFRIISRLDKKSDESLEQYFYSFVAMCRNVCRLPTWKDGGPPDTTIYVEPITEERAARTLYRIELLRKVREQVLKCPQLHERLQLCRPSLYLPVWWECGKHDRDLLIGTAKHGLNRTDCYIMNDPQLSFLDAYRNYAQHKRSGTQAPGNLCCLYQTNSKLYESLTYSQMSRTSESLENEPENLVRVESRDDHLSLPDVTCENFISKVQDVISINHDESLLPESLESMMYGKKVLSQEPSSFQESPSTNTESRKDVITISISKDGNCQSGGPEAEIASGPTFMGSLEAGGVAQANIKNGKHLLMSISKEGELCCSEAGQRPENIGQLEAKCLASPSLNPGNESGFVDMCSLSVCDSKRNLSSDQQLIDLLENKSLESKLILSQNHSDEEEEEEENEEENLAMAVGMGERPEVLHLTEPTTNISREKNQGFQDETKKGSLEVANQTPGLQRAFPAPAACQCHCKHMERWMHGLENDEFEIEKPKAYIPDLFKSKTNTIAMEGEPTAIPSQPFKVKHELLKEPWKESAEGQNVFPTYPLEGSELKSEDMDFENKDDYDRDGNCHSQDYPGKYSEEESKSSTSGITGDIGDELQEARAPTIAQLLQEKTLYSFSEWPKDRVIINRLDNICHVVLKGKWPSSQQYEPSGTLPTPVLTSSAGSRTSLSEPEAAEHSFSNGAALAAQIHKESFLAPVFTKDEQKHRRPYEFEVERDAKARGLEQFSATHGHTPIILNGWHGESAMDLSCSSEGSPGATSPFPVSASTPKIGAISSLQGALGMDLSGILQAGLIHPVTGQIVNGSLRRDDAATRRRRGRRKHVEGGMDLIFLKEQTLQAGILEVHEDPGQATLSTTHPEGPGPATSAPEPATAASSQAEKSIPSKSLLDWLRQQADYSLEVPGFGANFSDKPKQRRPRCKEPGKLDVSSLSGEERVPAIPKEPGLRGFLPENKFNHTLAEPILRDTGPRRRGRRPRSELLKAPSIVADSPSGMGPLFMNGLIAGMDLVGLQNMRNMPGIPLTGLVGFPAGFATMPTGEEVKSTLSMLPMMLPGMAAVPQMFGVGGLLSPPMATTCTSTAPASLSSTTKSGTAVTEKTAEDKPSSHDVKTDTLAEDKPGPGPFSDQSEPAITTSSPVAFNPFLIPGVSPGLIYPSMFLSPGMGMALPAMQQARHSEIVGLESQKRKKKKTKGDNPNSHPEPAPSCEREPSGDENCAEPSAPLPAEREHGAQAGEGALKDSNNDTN
UniProt Q5VXU3: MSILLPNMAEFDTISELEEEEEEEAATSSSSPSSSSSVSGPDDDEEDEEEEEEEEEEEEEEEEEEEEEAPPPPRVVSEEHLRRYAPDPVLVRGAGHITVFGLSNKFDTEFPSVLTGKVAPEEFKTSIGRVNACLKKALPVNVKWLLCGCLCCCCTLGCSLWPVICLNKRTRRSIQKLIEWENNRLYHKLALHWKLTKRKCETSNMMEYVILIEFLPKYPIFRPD
UniProt Q14677: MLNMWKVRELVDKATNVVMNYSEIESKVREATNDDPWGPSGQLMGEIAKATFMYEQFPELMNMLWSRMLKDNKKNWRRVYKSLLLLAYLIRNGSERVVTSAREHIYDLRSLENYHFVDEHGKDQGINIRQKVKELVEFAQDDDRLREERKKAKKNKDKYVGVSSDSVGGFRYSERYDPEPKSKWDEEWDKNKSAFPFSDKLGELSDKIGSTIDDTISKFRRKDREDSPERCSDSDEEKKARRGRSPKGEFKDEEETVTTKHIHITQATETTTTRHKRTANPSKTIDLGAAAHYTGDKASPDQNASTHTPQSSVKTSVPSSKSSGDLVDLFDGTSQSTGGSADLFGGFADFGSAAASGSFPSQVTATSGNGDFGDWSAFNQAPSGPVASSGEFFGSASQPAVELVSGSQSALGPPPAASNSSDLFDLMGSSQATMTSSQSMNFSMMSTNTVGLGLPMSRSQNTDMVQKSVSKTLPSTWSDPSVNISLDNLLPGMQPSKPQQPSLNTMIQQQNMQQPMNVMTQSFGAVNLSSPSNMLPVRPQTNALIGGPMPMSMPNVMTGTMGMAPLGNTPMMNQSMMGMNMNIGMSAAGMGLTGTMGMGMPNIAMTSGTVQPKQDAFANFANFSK
UniProt P56277: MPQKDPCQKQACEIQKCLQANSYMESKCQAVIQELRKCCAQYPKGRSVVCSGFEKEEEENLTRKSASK
UniProt Q07065: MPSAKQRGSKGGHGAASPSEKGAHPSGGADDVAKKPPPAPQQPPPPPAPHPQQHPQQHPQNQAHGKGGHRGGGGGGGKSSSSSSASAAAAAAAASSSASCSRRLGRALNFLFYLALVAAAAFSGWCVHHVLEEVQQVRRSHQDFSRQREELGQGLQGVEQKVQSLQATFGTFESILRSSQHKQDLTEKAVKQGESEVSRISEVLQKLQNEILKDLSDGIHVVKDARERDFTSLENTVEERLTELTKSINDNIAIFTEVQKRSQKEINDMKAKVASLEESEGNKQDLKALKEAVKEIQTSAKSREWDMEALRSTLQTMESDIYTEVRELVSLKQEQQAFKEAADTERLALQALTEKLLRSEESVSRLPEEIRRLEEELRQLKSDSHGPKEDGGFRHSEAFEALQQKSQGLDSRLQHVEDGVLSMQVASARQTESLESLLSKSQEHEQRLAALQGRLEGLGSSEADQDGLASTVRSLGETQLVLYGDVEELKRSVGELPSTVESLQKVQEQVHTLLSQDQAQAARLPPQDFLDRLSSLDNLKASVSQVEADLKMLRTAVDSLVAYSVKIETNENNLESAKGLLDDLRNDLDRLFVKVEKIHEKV
UniProt P56749: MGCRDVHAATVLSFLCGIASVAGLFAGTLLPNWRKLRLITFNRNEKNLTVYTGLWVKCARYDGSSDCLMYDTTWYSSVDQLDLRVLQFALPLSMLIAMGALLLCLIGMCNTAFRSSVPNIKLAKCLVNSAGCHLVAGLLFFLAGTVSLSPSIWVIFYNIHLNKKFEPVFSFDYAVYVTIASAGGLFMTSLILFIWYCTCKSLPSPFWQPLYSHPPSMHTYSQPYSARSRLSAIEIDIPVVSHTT
UniProt P51788: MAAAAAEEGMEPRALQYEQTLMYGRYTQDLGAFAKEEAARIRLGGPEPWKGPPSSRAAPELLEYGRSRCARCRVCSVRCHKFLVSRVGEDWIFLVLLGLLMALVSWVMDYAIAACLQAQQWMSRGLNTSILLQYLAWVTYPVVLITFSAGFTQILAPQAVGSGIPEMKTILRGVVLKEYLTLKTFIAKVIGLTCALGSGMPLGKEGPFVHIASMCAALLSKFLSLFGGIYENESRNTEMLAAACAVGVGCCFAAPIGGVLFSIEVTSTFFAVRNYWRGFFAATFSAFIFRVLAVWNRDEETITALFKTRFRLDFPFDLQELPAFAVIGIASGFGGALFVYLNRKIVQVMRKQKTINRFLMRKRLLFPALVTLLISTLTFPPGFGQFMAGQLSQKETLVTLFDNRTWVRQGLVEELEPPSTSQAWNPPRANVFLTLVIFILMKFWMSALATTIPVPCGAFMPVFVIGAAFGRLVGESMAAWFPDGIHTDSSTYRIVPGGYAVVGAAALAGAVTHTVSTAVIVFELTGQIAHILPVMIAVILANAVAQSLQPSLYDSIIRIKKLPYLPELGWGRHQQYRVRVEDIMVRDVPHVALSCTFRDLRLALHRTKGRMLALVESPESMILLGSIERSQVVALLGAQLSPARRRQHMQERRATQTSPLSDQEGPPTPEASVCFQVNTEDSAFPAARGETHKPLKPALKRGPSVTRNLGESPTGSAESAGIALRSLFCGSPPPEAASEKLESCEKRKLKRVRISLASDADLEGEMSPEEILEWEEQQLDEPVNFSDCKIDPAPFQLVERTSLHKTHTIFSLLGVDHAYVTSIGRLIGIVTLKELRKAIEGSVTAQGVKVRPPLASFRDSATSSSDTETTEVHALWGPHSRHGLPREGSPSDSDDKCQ
UniProt Q86X95: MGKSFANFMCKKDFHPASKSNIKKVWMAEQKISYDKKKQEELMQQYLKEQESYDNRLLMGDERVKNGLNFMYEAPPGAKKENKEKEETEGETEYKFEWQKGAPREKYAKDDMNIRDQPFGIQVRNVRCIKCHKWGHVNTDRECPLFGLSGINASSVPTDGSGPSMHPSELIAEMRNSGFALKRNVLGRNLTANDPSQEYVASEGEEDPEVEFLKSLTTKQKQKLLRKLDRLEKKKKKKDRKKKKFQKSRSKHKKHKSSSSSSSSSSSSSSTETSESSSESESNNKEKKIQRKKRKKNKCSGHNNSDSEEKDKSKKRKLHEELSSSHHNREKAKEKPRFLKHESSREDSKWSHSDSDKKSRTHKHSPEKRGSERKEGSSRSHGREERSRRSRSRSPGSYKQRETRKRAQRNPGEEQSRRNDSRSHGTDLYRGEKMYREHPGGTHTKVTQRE

Assays:
Assay in all cases: log2 fold change, soluble protein after heating vs DMSO (PISA); higher = thermal stabilisation; K562 lysate, 10 uM; active = over 0.2 and 3.5 SD of the protein, either way, in both replicates (recomputed)
vemurafenib = compound: CCCS(=O)(=O)Nc1ccc(F)c(C(=O)c2c[nH]c3ncc(-c4ccc(Cl)cc4)cc23)c1F [vemurafenib]
Procedure, shortened: (§1)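 Thermal stability, expressed as log-two fold change relative to solvent controls, is given from duplicates. Crude K562 extract in PBS pH 7.4 with 1 mM MgCl2, at 1 mg/mL protein, was treated with 10 μM compound for 30 min and heated in aliquots for 3 min across 48°C-58°C. After pooling, adjustment to 0.5% NP-40 at 4°C and centrifugation at 21,000xg for 90 min, supernatant protein was measured by TMTpro 16plex LC-MS/MS with channel sums equalised.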

[1] = compound: CCn1c(C(=O)N(C2CC2)C2CC2)cc2c3c(ncn3C)c(Nc3cc(C)n(C)n3)nc21
Procedure, shortened: as §1

[2] = compound: CCn1cc(-c2ccnc3[nH]c(-c4cccc(CN(C)C)c4)cc23)c(-c2ccc(NC(=O)N(C)C)cc2)n1
Procedure, shortened: as §1

[3] = compound: CN1CCC(CNc2ccc3ncc(-c4cccc(OC(F)(F)F)c4)n3n2)CC1
Procedure, shortened: as §1

saracatinib = compound: CN1CCN(CCOc2cc(OC3CCOCC3)c3c(Nc4c(Cl)ccc5c4OCO5)ncnc3c2)CC1 [saracatinib]
Procedure, shortened: as §1

sotrastaurin = compound: CN1CCN(c2nc(C3=C(c4c[nH]c5ccccc45)C(=O)NC3=O)c3ccccc3n2)CC1 [sotrastaurin]
Procedure, shortened: as §1

alvocidib = compound: CN1CC[C@H](c2c(O)cc(O)c3c(=O)cc(-c4ccccc4Cl)oc23)[C@H](O)C1 [alvocidib]
Procedure, shortened: as §1

Tubastatin A = compound: CN1CCc2c(c3ccccc3n2Cc2ccc(C(=O)NO)cc2)C1 [Tubastatin A]
Procedure, shortened: as §1

[4] = compound: CNC(=O)C1=CC=CC=C1NC2=NC(=NC=C2Cl)NC3=C(C=C(C=C3)N4CCOCC4)OC
Procedure, shortened: as §1

defactinib = compound: CNC(=O)c1ccc(Nc2ncc(C(F)(F)F)c(NCc3nccnc3N(C)S(C)(=O)=O)n2)cc1 [defactinib]
Procedure, shortened: as §1

[5] = compound: CNc1nc(-c2ccc3c(N)n[nH]c3c2)cc(N2C[C@@H](C(=O)NC3CCCCC3)CC[C@H]2C)n1
Procedure, shortened: as §1

alisertib = compound: COc1cc(Nc2ncc3c(n2)-c2ccc(Cl)cc2C(c2c(F)cccc2OC)=NC3)ccc1C(=O)O [alisertib]
Procedure, shortened: as §1

gefitinib = compound: COc1cc2ncnc(Nc3ccc(F)c(Cl)c3)c2cc1OCCCN1CCOCC1 [gefitinib]
Procedure, shortened: as §1

barasertib = compound: CCN(CCCOc1ccc2c(Nc3cc(CC(=O)Nc4cccc(F)c4)[nH]n3)ncnc2c1)CCOP(=O)(O)O [barasertib]
Procedure, shortened: as §1

[6] = compound: CC[C@@H]1C(=O)N(C)c2cnc(Nc3ccc(C(=O)NC4CCN(C)CC4)cc3OC)nc2N1C1CCCC1
Procedure, shortened: as §1

encorafenib = compound: COC(=O)N[C@@H](C)CNc1nccc(-c2cn(C(C)C)nc2-c2cc(Cl)cc(NS(C)(=O)=O)c2F)n1 [encorafenib]
Procedure, shortened: as §1

[7] = compound: COC(=O)[C@H](CCSC)NC(=O)C1=C(C=C(C=C1)NC[C@H](CS)N)C2=CC=CC=C2
Procedure, shortened: as §1

[8] = compound: CCCS(=O)(=O)Nc1ccc(F)c(C(=O)c2c[nH]c3ncc(Cl)cc23)c1F
Procedure, shortened: as §1

volasertib = compound: CC[C@@H]1C(=O)N(C)c2cnc(Nc3ccc(C(=O)N[C@H]4CC[C@H](N5CCN(CC6CC6)CC5)CC4)cc3OC)nc2N1C(C)C [volasertib]
Procedure, shortened: as §1

[9] = compound: COc1cc2nc(-c3cc(F)ccc3O)nc(N[C@@H]3CNC[C@H]3C(C)(C)O)c2cc1OC
Procedure, shortened: as §1

Measured: log2 fold change

CHD9 (UniProt Q3L8U1)
inactive: vemurafenib -0.028 | [1] -0.139 | [3] -0.122 | saracatinib 0.114 | sotrastaurin 0.17 | alvocidib 0.027 | Tubastatin A 0.055 | [4] -0.064 | defactinib -0.147 | [5] -0.137 | alisertib -0.369 | gefitinib 0.111
active: [2] 1.88

CHST11 (UniProt Q9NPF2)
inactive: vemurafenib 0.068 | barasertib 0.152 | [6] 0.024 | [1] 0.008 | [2] -0.082 | [3] -0.047 | saracatinib 0.119 | sotrastaurin -0.014 | alvocidib -0.039 | Tubastatin A 0.073 | [4] -0.059 | defactinib 0 | [5] 0.061 | encorafenib 0.189 | [7] 0.003 | alisertib -0.027 | gefitinib 0.004

CHD6 (UniProt Q8TD26)
inactive: vemurafenib 0.002 | barasertib 0.117 | [6] 0.162 | [1] 0.061 | [2] 0.039 | [3] 0.003 | saracatinib -0.142 | sotrastaurin -0.022 | alvocidib 0.058 | Tubastatin A -0.164 | defactinib 0.107 | [5] -0.224 | encorafenib -0.018 | [7] 0.074 | alisertib 0.042 | gefitinib -0.021

CHIC1 (UniProt Q5VXU3)
inactive: vemurafenib 0.042 | [2] 0.329 | [3] -0.161 | alvocidib 0.066 | defactinib 0.017

CLINT1 (UniProt Q14677)
inactive: vemurafenib 0.131 | barasertib 0.075 | [6] 0.182 | [2] -0.051 | [3] -0.005 | saracatinib 0.031 | sotrastaurin -0.102 | alvocidib -0.077 | defactinib 0.013 | [5] 0.234 | encorafenib 0.199 | [7] 0

CLIP1, A0A3B3ITA2
active: [3] 0.634
inactive: vemurafenib -0.026 | [1] -0.015 | [2] -0.515 | sotrastaurin -0.021 | alvocidib -0.036 | Tubastatin A 0.152 | defactinib -0.077

CMC4 (UniProt P56277)
inactive: [8] -0.003 | volasertib 0.014 | sotrastaurin 0.072 | [4] 0.029 | alisertib -0.063 | [9] -0.02 | gefitinib 0.341

CKAP4 (UniProt Q07065)
inactive: [8] 0.049 | barasertib 0.03 | [6] -0.223 | volasertib 0.097 | [2] -0.142 | [3] -0.242 | saracatinib -0.01 | sotrastaurin -0.09 | alvocidib 0.33 | [5] -0.07 | encorafenib -0.209 | [7] 0.248 | [9] 0.018

CLDN12 (UniProt P56749)
inactive: [8] -0.076 | barasertib 0.044 | [6] 0.069 | volasertib 0.058 | [1] 0.067 | [2] 0.049 | [3] 0.081 | saracatinib 0.003 | sotrastaurin 0.024 | alvocidib -0.057 | Tubastatin A -0.116 | [4] -0.23 | [5] 0.063 | encorafenib 0.03 | [7] -0.224 | alisertib -0.055 | [9] -0.06 | gefitinib 0.069

CLCN2 (UniProt P51788)
inactive: [8] 0.075 | barasertib 0.01 | [6] -0.144 | volasertib -0.103 | [1] 0.045 | [2] -0.003 | [3] 0.068 | saracatinib 0.055 | sotrastaurin 0.049 | alvocidib -0.03 | Tubastatin A 0.14 | [4] -0.116 | [5] -0.194 | encorafenib 0.049 | [7] -0.055 | [9] 0.076

CIR1 (UniProt Q86X95)
inactive: [8] 0.015 | [6] -0.005 | volasertib 0.016 | [1] -0.009 | saracatinib 0.172 | sotrastaurin 0.015 | Tubastatin A 0.178 | [5] 0.103 | encorafenib -0.006 | [7] -0.012 | [9] -0.01
